This is an account of results in patent US20130333059A1, “HOX COMPOSITIONS AND METHODS” (THE JOHNS HOPKINS UNIVERSITY, priority 2006, published 2013).

The chains behind the UniProt entries cited, without tags or fusion partners. Residues count along the entry.
UniProt P09874, residues 2-1014: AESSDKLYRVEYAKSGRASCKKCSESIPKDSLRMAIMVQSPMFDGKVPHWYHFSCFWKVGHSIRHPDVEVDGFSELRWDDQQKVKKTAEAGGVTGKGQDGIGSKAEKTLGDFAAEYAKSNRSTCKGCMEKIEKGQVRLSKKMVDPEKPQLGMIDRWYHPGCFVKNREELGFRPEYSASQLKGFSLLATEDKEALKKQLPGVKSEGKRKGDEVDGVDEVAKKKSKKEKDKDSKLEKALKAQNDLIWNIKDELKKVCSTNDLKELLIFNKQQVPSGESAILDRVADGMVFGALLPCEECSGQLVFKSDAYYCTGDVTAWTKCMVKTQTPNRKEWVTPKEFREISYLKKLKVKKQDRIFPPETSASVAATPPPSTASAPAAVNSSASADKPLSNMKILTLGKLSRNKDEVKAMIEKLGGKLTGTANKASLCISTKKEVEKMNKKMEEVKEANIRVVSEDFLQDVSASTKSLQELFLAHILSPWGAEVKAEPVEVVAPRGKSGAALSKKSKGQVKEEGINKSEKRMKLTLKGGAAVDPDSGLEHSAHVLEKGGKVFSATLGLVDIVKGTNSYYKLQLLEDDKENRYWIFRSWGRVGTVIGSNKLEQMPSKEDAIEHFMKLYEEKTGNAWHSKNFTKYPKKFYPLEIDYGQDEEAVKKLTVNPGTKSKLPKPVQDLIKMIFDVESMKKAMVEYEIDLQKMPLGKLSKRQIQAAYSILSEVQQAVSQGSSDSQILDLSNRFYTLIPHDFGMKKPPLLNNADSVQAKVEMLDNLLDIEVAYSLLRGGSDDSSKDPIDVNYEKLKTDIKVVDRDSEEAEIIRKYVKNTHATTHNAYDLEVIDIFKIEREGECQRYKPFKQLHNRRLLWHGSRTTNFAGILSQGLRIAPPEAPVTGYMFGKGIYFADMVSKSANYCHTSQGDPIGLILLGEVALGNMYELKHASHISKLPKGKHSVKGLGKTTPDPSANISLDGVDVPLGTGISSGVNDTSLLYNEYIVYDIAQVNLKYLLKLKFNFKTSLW
UniProt P09629: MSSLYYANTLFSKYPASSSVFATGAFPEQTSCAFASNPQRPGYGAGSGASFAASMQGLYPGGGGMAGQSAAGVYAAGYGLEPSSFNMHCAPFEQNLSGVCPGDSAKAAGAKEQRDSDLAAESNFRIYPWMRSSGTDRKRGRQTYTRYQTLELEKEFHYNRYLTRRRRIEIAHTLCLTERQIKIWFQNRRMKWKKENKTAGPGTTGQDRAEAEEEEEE

In experiment [1] the target is poly(ADP) ribose polymerase (PARP) (human) (UniProt P09874). The experiment is described as follows: GST pull-down/affinity chromatography; co-immunoprecipitation.
Experiment [2] shares this target. The experiment is described as follows: GST-HOXB7 affinity matrix, SKBR3 extract, immunoblot (FIG. 9B). (Immunoblotting shows a protein as a band on a membrane.)
Experiment [3] shares this target. Kind of experiment: GST-HOXB7 affinity chromatography of cell extracts; MALDI-TOF peptide mass fingerprint and immunoblot of eluate.
Experiment [4] shares this target. Kind of experiment: co-immunoprecipitation with GFP antibodies from stably transfected SKBR3 cells, Western blot (FIG. 9C).

No constants are given. Whether binding was seen depends on the method and setting. For some of these results: In cells and extracts the contact can be indirect. Some entries that bind do so weakly or less than the wild type.

Regarding GST-HOXB7 (from UniProt P09629 1-217), the binding entry in experiment [1], in experiment [2] and in experiment [3] was “binds” throughout.
Take HOXB7-YFP (from UniProt P09629 1-217): the binding result in experiment [4] is given as “binds”.
